Earlier results on one compound are cited in patent publication US12295943B2 (Closed Loop Medicine Ltd., priority 2023, dated 2025).

Consider `COc1ccc(-n2nc(C(N)=O)c3c2C(=O)N(c2ccc(N4CCCCC4=O)cc2)CC3)cc1` [Apixaban], for which the “daily average levels giving best balance between reduction in stroke and minimization of bleeding” value (daily average) is roughly 125 ng/mL. Further, the “trough levels giving best balance between reduction in stroke and minimization of bleeding” value (trough) was 50 to 75 ng/mL.
